Among the data in EP3878534A1, “EXTRACTION AND BACK-EXTRACTION OF HYDROPHOBIC COMPOUNDS USING DEEP EUTECTIC SOLVENT WITH TUNEABLE HYDROPHOBICITY” (Wageningen Universiteit, priority 2020, dated 2021) are back-extraction efficiency and back-extracted values, retold here.

The series is described as follows: Back-extraction experiment from DES imidazole/hexanoic acid by addition of imidazole (GC-FID).

As to `CCCCCCCCCCCC` [dodecane], the back-extraction efficiency (> 60 mol% imidazole, from DES imidazole/hexanoic acid) is on record as 97%. This molecule showed a back-extracted (summary in description, imidazole content not stated) of around 100%.
